Test results: paper PMC9239213
No constants are given. Whether binding was seen depends on the method and setting. Binding calls can cover weak binding; strength is not graded here. Tags and fused reporters may be left off the sequences shown. For some of these results: In cells and extracts the contact can be indirect.

Key:
[1] = molecular target: T1, N-terminal fusion of the cyaA T25 fragment to PstB (Salmonella enterica serovar Typhimurium); test: two-hybrid; bacterial two-hybrid (BACTH) in E. coli BTH101 lacking cya; CyaA T18 and T25 fusions; spotted on LB plates with X-Gal and IPTG, 30°C, 40 h; β-galactosidase assay (Miller units)
T1 sequence: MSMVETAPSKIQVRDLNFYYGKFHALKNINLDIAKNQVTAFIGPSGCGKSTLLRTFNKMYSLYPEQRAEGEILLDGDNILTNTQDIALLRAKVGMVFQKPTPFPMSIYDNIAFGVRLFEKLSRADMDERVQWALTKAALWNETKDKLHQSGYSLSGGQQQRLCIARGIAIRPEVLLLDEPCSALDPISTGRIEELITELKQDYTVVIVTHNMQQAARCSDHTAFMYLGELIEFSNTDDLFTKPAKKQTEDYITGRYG

[2] = molecular target: T2, N-terminally T25-fused PhoR (Salmonella enterica serovar Typhimurium); test: as above
T2 sequence: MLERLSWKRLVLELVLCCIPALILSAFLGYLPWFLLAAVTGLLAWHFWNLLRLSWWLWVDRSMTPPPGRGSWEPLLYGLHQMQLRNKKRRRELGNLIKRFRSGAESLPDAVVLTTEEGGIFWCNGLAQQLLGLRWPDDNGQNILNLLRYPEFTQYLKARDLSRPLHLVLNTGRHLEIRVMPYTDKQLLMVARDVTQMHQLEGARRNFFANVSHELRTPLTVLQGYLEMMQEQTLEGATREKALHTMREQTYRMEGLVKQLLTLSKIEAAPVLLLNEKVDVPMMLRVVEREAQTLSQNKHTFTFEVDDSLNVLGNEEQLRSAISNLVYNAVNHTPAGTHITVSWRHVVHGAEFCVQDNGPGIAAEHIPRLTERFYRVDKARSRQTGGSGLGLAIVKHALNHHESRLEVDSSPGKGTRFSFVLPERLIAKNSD

[3] = molecular target: C-terminally 8×Myc-tagged PhoR protein (Salmonella enterica serovar Typhimurium); test: co-IP; crude extracts of Salmonella (phoR-8×Myc background, PhoU-His from pBAD33) in TBS; anti-Myc antibody and protein G Sepharose, 2 h at 4°C; blots with anti-His and anti-Myc

B1: N-terminally T18-fused PhoU (protein, UniProt A0A2X4TL38 1-241)
chain: MDSLNLNKHISGQFNAELESIRTQVMTMGGMVEQQLSDAITAMHNQDSELAKRVIDGDKHVNMMEVAIDEACVRIIAKRQPTASDLRLVMAIIKTIAELERIGDVADKICRTALEKFSQQHQPLLVSLESLGRHTVQMLHDVLDAFARMDLDEAVRIYREDKKVDQEYEGIVRQLMTYMMEDSRTIPSVLTALFCARSIERIGDRCQNICEYIFYFVKGQDFRHVGGDELDKLLAGKDPKE
- binding [1]: binds
- binding [2]: binds

B2: T18-PhoU(1-218) (domain or fragment, UniProt A0A2X4TL38 1-218)
chain: MDSLNLNKHISGQFNAELESIRTQVMTMGGMVEQQLSDAITAMHNQDSELAKRVIDGDKHVNMMEVAIDEACVRIIAKRQPTASDLRLVMAIIKTIAELERIGDVADKICRTALEKFSQQHQPLLVSLESLGRHTVQMLHDVLDAFARMDLDEAVRIYREDKKVDQEYEGIVRQLMTYMMEDSRTIPSVLTALFCARSIERIGDRCQNICEYIFYFVK
- binding [2]: binds

B3: C-terminally His-tagged PhoU protein (protein, UniProt A0A2X4TL38 1-241)
chain: MDSLNLNKHISGQFNAELESIRTQVMTMGGMVEQQLSDAITAMHNQDSELAKRVIDGDKHVNMMEVAIDEACVRIIAKRQPTASDLRLVMAIIKTIAELERIGDVADKICRTALEKFSQQHQPLLVSLESLGRHTVQMLHDVLDAFARMDLDEAVRIYREDKKVDQEYEGIVRQLMTYMMEDSRTIPSVLTALFCARSIERIGDRCQNICEYIFYFVKGQDFRHVGGDELDKLLAGKDPKE
- binding [3]: binds

B4: T18-PhoU(1-120) (domain or fragment, UniProt A0A2X4TL38 1-120)
chain: MDSLNLNKHISGQFNAELESIRTQVMTMGGMVEQQLSDAITAMHNQDSELAKRVIDGDKHVNMMEVAIDEACVRIIAKRQPTASDLRLVMAIIKTIAELERIGDVADKICRTALEKFSQQ
- binding [2]: no binding

B5: T18-PhoU(1-181) (domain or fragment, UniProt A0A2X4TL38 1-181)
chain: MDSLNLNKHISGQFNAELESIRTQVMTMGGMVEQQLSDAITAMHNQDSELAKRVIDGDKHVNMMEVAIDEACVRIIAKRQPTASDLRLVMAIIKTIAELERIGDVADKICRTALEKFSQQHQPLLVSLESLGRHTVQMLHDVLDAFARMDLDEAVRIYREDKKVDQEYEGIVRQLMTYMME
- binding [2]: no binding

B6: T18-PhoU(1-147) (domain or fragment, UniProt A0A2X4TL38 1-147)
chain: MDSLNLNKHISGQFNAELESIRTQVMTMGGMVEQQLSDAITAMHNQDSELAKRVIDGDKHVNMMEVAIDEACVRIIAKRQPTASDLRLVMAIIKTIAELERIGDVADKICRTALEKFSQQHQPLLVSLESLGRHTVQMLHDVLDAFA
- binding [2]: no binding

B7: T18-PhoU(1-119) (domain or fragment, UniProt A0A2X4TL38 1-119)
chain: MDSLNLNKHISGQFNAELESIRTQVMTMGGMVEQQLSDAITAMHNQDSELAKRVIDGDKHVNMMEVAIDEACVRIIAKRQPTASDLRLVMAIIKTIAELERIGDVADKICRTALEKFSQ
- binding [2]: no binding

B8: T18-PhoU(1-77) (domain or fragment, UniProt A0A2X4TL38 1-77)
chain: MDSLNLNKHISGQFNAELESIRTQVMTMGGMVEQQLSDAITAMHNQDSELAKRVIDGDKHVNMMEVAIDEACVRIIA
- binding [2]: no binding

Binder: MDSLNLNKHISGQFNAELESIRTQVMTMGGMVEQQLSDAITAMH (domain or fragment, UniProt A0A2X4TL38 1-44) [T18-PhoU(1-44)]
- binding [2]: no binding
